System: SOCS3-Elo B/C
Assay: ITC, SOCS3-EloB/C
Format: binding
Conditions: single ITC run #30; cell SOCS3 B/C

Work on `CC(C)[C@H](NC(=O)[C@@H](NC(=O)[C@@H](NC(=O)[C@H](CO)NC(=O)[C@H](Cc1ccc(OP(=O)(O)O)cc1)NC(=O)[C@H](CCC(=O)O)NC(=O)[C@@H](NC(=O)[C@@H](NC(=O)[C@H](CO)NC(=O)[C@H](C)NC(=O)[C@@H](NC(=O)[C@@H](N)CO)[C@@H](C)O)[C@@H](C)O)C(C)C)[C@@H](C)O)C(C)C)C(=O)N[C@@H](Cc1c[nH]cn1)C(=O)N[C@@H](CO)C(=O)NCC(=O)O` [gp130 pY757] yielded a ΔS of 13.8 cal/mol/deg.

Source: PMC8640019, “Discovery of an exosite on the SOCS2-SH2 domain that enhances SH2 binding to phosphorylated ligands” (Nature Communications, 2021)
